Test results from PMC4066787.
Results are given in words; binding and its absence hold for the method and conditions named. In cells and extracts the contact can be indirect. A yes stands for co-enrichment or nearness to the bait. Other partners may have been found.

Biological target: histone deacetylase protein HDAC1 (mouse (endogenous in R1 ESCs)), O09106
Assay: affinity purification with mass spectrometry; two-step IP-iPOND in native (non-fixative) conditions: sonicated nuclear extracts (about mononucleosome size) of ESCs pulsed 10 min with EdU, immunoprecipitated with goat anti-HDAC1 antibody, eluted with competitor peptide, re-purified on streptavidin magnetic beads via biotin-EdU nascent DNA; high-resolution mass spectrometry
Conditions: remark: other sources report otherwise

B1: epigenetic regulator UHRF1 protein, Q8VDF2 1-782 (protein)
chain: MWIQVRTMDGKETHTVNSLSRLTKVQELRKKIEEVFHVEPQLQRLFYRGKQMEDGHTLFDYDVRLNDTIQLLVRQSLALPLSTKERDSELSDSDSGYGVGHSESDKSSTHGEGAAEADDKTVWEDTDLGLYKVNEYVDVRDNIFGAWFEAQVVQVQKRALSEDEPCSSSAVKTSEDDIMYHVKYDDYPEHGVDIVKAKNVRARARTVIPWENLEVGQVVMANYNVDYPRKRGFWYDVEICRKRQTRTARELYGNIRLLNDSQLNNCRIMFVDEVLMIELPKERRPLIASPSQPPPALRNTGKSGPSCRFCKDDENKPCRKCACHVCGGREAPEKQLLCDECDMAFHLYCLKPPLTSVPPEPEWYCPSCRTDSSEVVQAGEKLKESKKKAKMASATSSSRRDWGKGMACVGRTTECTIVPANHFGPIPGVPVGTMWRFRVQVSESGVHRPHVAGIHGRSNDGAYSLVLAGGYEDDVDNGNYFTYTGSGGRDLSGNKRTAGQSSDQKLTNNNRALALNCHSPINEKGAEAEDWRQGKPVRVVRNMKGGKHSKYAPAEGNRYDGIYKVVKYWPERGKSGFLVWRYLLRRDDTEPEPWTREGKDRTRQLGLTMQYPEGYLEALANKEKSRKRPAKALEQGPSSSKTGKSKQKSTGPTLSSPRASKKSKLEPYTLSEQQANLIKEDKGNAKLWDDVLTSLQDGPYQIFLSKVKEAFQCICCQELVFRPVTTVCQHNVCKDCLDRSFRAQVFSCPACRFELDHSSPTRVNQPLQTILNQLFPGYGSGR
binding: binds
